# Experimental data as given in article PMC7819943, “Rice protein-binding microarrays: a tool to detect cis-acting elements near promoter regions in rice”.
# The other results are listed elsewhere or left out.
# Target: T1, OsSMF1 (Oryza sativa, UniProt Q6ZLB0 1-436)
# T1 sequence: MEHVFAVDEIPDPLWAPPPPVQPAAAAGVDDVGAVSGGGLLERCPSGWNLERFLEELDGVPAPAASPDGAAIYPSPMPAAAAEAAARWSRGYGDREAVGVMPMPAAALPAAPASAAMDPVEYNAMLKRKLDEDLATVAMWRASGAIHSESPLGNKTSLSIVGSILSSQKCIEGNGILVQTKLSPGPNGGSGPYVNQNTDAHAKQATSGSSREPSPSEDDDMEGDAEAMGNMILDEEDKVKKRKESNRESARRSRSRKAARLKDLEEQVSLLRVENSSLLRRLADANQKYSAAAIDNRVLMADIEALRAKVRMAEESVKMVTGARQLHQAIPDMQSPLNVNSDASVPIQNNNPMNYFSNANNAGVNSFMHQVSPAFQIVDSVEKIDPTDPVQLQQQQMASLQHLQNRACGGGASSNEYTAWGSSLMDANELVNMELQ
# Assay: protein-binding microarray (RPBM); PBS, 2% BSA, 51.3 ng/ul salmon testes DNA, 50 uM zinc acetate, 200 nM TF, 25 C, 1 h; high values mean tight binding
# Settings: protein: recombinant; tags: N-terminal polyhistidine and DsRed monomer fusion (pET32a); chain copies: 2; label: CyDye5-dUTP incorporated in the synthesized complementary strand; 3' TTTTT single-stranded linker to array surface; dsDNA, one strand shown
# Method in brief: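 In PBS with 2% BSA, salmon testes DNA and 50 µM zinc acetate, 200 nM protein was incubated on a custom Agilent array at 25 °C for 1 h and then washed off. The array had been made double-stranded by primer extension with Cy5-dUTP and blocked with 2% BSA. The proteins were transcription factors fused N-terminally to polyhistidine and DsRed, expressed in E. coli BL21-CodonPlus and purified on Ni–NTA. The binding signal is per-feature fluorescence intensity (arbitrary units) from an Axon 4000B scanner.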
row,Sequence,binding signal
1,GAAGGATTAATGAATTAACCACGTGCGCAAAATCACACGTCGGAGTCACCTAGTGCAG,4550 fluorescence intensity (a.u.)
2,AGCGTCGCGCCGCGCCACGCCACGCCACGCCACCCCACCACGGAGTCACCTAGTGCAG,5830 fluorescence intensity (a.u.)
3,GGATCAAATTGCCACGTATGCGCCACGTCAATGCCACATCCGGAGTCACCTAGTGCAG,27400 fluorescence intensity (a.u.)
4,ATTCCTATCATTGGAGTATGTGTGCACGTCATTAGTGCCACGGAGTCACCTAGTGCAG,6500 fluorescence intensity (a.u.)
5,ACATTTGTTTTGCACGAAACGTGGCATTAAGAAATGAAGACGGAGTCACCTAGTGCAG,3230 fluorescence intensity (a.u.)
6,GACCCTTGTGAGGGCACTATATATAGCCCTCCACCTCAGTCGGAGTCACCTAGTGCAG,26200 fluorescence intensity (a.u.)
7,TCCCTCCGTGGACGTGGACTTGGTCCGGTCTTCCTTCCCTCGGAGTCACCTAGTGCAG,5660 fluorescence intensity (a.u.)
8,AACAAACTGCCAGATAAATTACCCTTCTTCCAGCTCGGATCGGAGTCACCTAGTGCAG,3910 fluorescence intensity (a.u.)
9,TCCCGCCCGCCACGCGATTCAAACGCCCTTCCCGTGGGCCCGGAGTCACCTAGTGCAG,3250 fluorescence intensity (a.u.)
10,CATCCATCCATCCATCGCGGCGCATCGTACGGTCCAGAGCCGGAGTCACCTAGTGCAG,27000 fluorescence intensity (a.u.)
11,GGGTCGTGCCCATGCTTGGGCTGCACCCTTGGCACGGTGGCGGAGTCACCTAGTGCAG,3260 fluorescence intensity (a.u.)
12,CTAAAGAAGAAACACAAAGAAACCAACTCCGACGACCACCCGGAGTCACCTAGTGCAG,3300 fluorescence intensity (a.u.)
13,AAATCAGGAAATGAAAAGCTAGGGTTTTAGGTATTGTAATCGGAGTCACCTAGTGCAG,40800 fluorescence intensity (a.u.)
14,GCTATGTTCAATTCACACTTGTTGAAATTTCTACCATGTACGGAGTCACCTAGTGCAG,3280 fluorescence intensity (a.u.)
15,TAGCAAATCGATTCTGCCACGTGTCTCACTCCTGCACACACGGAGTCACCTAGTGCAG,32600 fluorescence intensity (a.u.)
16,TTGTTTATTTTATCAATTGACGTGTTCATGCAATCCACAACGGAGTCACCTAGTGCAG,3420 fluorescence intensity (a.u.)
17,TGTTGCGCCGTCACTCGTAGACTACTCCATCTCGCTCGCCCGGAGTCACCTAGTGCAG,3670 fluorescence intensity (a.u.)
18,GTTCCCCTTGTACCCGCTCGTCACGTTGGCGCCGCGCACGCGGAGTCACCTAGTGCAG,5570 fluorescence intensity (a.u.)
19,GTCGGCCGATCGATCGATCATACCACGGGCCGATTCGTGGCGGAGTCACCTAGTGCAG,24500 fluorescence intensity (a.u.)
20,GGCATCGTCGACGGGAAGACGGACGCCATGAATTCCGTCACGGAGTCACCTAGTGCAG,3500 fluorescence intensity (a.u.)
21,GGGGCGCCTTCTTCTCCACGCCGCCGCCGCGTGGGCCAGGCGGAGTCACCTAGTGCAG,3460 fluorescence intensity (a.u.)

row,Sequence,binding signal
1,CCCGTGACGTGTCGGCATCGGAGGGCCCCTCGTCGGGGTCCGGAGTCACCTAGTGCAG,10200 fluorescence intensity (a.u.)
2,ACACACGAGCAAAACTACTCCGACTGACAGCACGGGACCCCGGAGTCACCTAGTGCAG,3330 fluorescence intensity (a.u.)
3,TCCATTTTGGACCGCTGACGAGGACGATAGGAGCGTGAGTCGGAGTCACCTAGTGCAG,4710 fluorescence intensity (a.u.)
4,ATCAAGTCACCTCTTGATCACAGTAAGATGTGTCACTTCCCGGAGTCACCTAGTGCAG,4150 fluorescence intensity (a.u.)
5,TAATCTGGAATTATGACAATGTAGGGCACAATAACCAAGTCGGAGTCACCTAGTGCAG,3510 fluorescence intensity (a.u.)
6,ATGACTGATAATCTAAGACATGAAATAACTGAAATTCTGTCGGAGTCACCTAGTGCAG,22900 fluorescence intensity (a.u.)
7,GTGCGATCGTTCGTTGCAAGTAGCAATTCGTCAGCTCTGCCGGAGTCACCTAGTGCAG,4480 fluorescence intensity (a.u.)
8,AGTGTTGATCGAGTCGTGGGTGTGCATGGTGTGCGTGGCGCGGAGTCACCTAGTGCAG,3930 fluorescence intensity (a.u.)
9,CCCGCAGCGTCCGGTGTCATCGATCGTGGCAGGGAAGTCCCGGAGTCACCTAGTGCAG,3480 fluorescence intensity (a.u.)
10,TGAGATATATATTTCGTATGTATATAGAGAAATAAAGAAACGGAGTCACCTAGTGCAG,57100 fluorescence intensity (a.u.)
11,CCAAATCAAACGGCCACCTGTACCCTACGTGCCACTCCTCCGGAGTCACCTAGTGCAG,5030 fluorescence intensity (a.u.)
12,AAAAGAACGTGGACAAACGGGAGTAAGCACACGGCGGCGACGGAGTCACCTAGTGCAG,3590 fluorescence intensity (a.u.)
13,TCTGAATTGGGCCCTGTCGCGAAGCCTGCCACCTGAATTGCGGAGTCACCTAGTGCAG,3440 fluorescence intensity (a.u.)
14,CGATCTATCTTAGTTCATTCGCTGCAAATCCGACGCCTGACGGAGTCACCTAGTGCAG,3240 fluorescence intensity (a.u.)
15,GGCAGTGGGACACGTTCGCCACTCAACCCAGCCTTCTGGTCGGAGTCACCTAGTGCAG,3630 fluorescence intensity (a.u.)
16,TCTAGATGGAGCCTACCGATTTGCCCTTCATTTTGTAGGACGGAGTCACCTAGTGCAG,19100 fluorescence intensity (a.u.)
17,ACAAATGTTTACCGTAACACTATATTATCATATCATAAAGCGGAGTCACCTAGTGCAG,3160 fluorescence intensity (a.u.)
18,AAGAACTCATCTTACACCAATTAGAAAACACAAGAGAAACCGGAGTCACCTAGTGCAG,28900 fluorescence intensity (a.u.)
19,TGCCACTCGACGCCTCAATTCATCCCATGCCACCGTGGCTCGGAGTCACCTAGTGCAG,6960 fluorescence intensity (a.u.)
20,AACCTCAGAAATAAAGTGGAAACGTTTAATTTCCATGGTCCGGAGTCACCTAGTGCAG,18300 fluorescence intensity (a.u.)
21,TGGTTTGGTCTCCATCACAAGATCTGTGCATGATTAGCTGCGGAGTCACCTAGTGCAG,3290 fluorescence intensity (a.u.)

# Individual results from the results shown:
# CCCGTGACGTGTCGGCATCGGAGGGCCCCTCGTCGGGGTCCGGAGTCACCTAGTGCAG | binding signal: 10200 fluorescence intensity (a.u.)
# CGATCTATCTTAGTTCATTCGCTGCAAATCCGACGCCTGACGGAGTCACCTAGTGCAG | binding signal: 3240 fluorescence intensity (a.u.)
